Patent publication US12576075B2, “Combination therapies for treating cancer” (Institute For Cancer Research, priority 2018, dated 2026)

Tested on: 786-O cells
Assay: Dose-dependent anti-proliferative effects on 786-O cells (dose response)
Format: cell-based
Details: Homo sapiens, 786-0, single drug dose response, read-out: ED50 (the source's name)

EC50: 1900 nM
Structure (SMILES): CNC(=O)c1ccccc1Sc1ccc2c(/C=C/c3ccccn3)n[nH]c2c1 [Axitinib, axitinib]
